Data taken from patent US10466253B2, “Molecular flux rates through critical pathways measured by stable isotope labeling in vivo, as biomarkers of drug action and disease activity” (The Regents of the University of California, priority 2004, dated 2019).
Entries after “also recorded” stand apart in the source; their conditions may differ. For at least one compound, name, drawing or mass did not settle the structure.

Columns and labels:
SW 1753 cells = experiment: DNA methylation in cultured tumor cells (2H3-methyl methionine labeling, GC-MS of methylcytosine); type: cell-based; conditions: 24-hour labeling period; 125, 250, 500 nM
liver collagen synthesis = experiment: Liver collagen synthesis in CCl4-induced liver fibrosis
[1] = tested on: whole body glycolytic disposal; experiment: Glycolytic disposal of deuterated glucose (2H2O production); type: in vivo, Zucker-Diabetes-Fat (ZDF) rats; conditions: ZDF rats after treatment; blood 60 and 90 minutes after deuterated glucose

For `Nc1ncn([C@H]2C[C@H](O)[C@@H](CO)O2)c(=O)n1` [Decitabine, decitabine], the “fraction of methylcytosine that is new” value (SW 1753 cells) was “suppressed”.
For `CN(CCOc1ccc(CC2SC(=O)NC2=O)cc1)c1ccccn1` (stereo not drawn) [rosiglitazone], the “rate of liver collagen synthesis in CCl4-treated mice” value (liver collagen synthesis) was “reduce the rate of collagen synthesis; also recorded: suppressed” and the “glycolytic disposal rate / insulin sensitivity” value [1] was “improve insulin sensitivity”.
